Reference: article PMC7205312
These are yes or no findings as the source states them, for the method shown. In cells and extracts the contact can be indirect. Some entries that bind do so weakly or less than the wild type.

Key:
Tm-2^2 (tomato) [1] = target: Tm-2^2 (tomato) (UniProt Q71BG9); assay: co-IP; Myc- and HA-tagged copies of full-length Tm-2^2 (or D481V) co-expressed WITHOUT TMV MP in N. benthamiana; IP with anti-Myc beads; blot anti-HA
Tm-2^2 (tomato) [2] = target: Tm-2^2 (tomato) (UniProt Q71BG9); assay: co-IP; Myc- and HA-tagged copies of full-length Tm-2^2 (or mutant) co-expressed WITH TMV MP-YFP (GenBank BAF93925.1) in N. benthamiana; leaves collected at 22-24 hpi; IP with anti-Myc beads, 3 h at 4°C, IP buffer 25 mM Tris-HCl pH 7.5, 150 mM NaCl, 1 mM EDTA, 10% glycerol, 10 mM DTT, 0.2-0.5% NP-40; blot anti-HA
[3] = target: T1, Tm-2^2 CC domain (aa 1-141) (tomato) (UniProt Q71BG9); assay: co-IP; isolated domains with C-terminal YFP or Myc tag co-expressed in N. benthamiana for 48 hours; IP with anti-GFP beads; blot anti-Myc
T1 sequence: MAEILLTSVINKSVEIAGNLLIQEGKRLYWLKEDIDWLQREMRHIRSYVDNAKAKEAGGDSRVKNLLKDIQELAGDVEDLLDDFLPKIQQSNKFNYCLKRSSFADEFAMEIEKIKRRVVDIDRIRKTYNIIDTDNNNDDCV

[4] = target: T2, Tm-2^2 NB-ARC domain (aa 141-492) (tomato) (UniProt Q71BG9); assay: as above
T2 sequence: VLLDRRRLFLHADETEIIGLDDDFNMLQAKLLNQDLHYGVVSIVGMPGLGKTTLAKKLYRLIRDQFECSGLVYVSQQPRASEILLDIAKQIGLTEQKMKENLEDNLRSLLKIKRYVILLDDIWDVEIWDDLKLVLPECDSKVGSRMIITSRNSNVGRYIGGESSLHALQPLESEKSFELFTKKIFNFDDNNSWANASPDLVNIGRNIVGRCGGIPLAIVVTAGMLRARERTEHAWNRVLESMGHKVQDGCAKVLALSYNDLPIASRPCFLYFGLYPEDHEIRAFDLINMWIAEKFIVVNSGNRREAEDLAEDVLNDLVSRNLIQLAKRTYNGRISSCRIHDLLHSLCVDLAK

[5] = target: T2, Tm-2^2 NB-ARC domain (aa 141-492) (tomato); assay: co-IP; isolated domains with HA or Myc tag co-expressed in N. benthamiana, no MP; IP with anti-Myc beads; blot anti-HA
[6] = target: Tm-2^2 LRR domain (aa 493-861) (tomato) (UniProt Q71BG9); assay: co-IP; isolated domains with C-terminal YFP or Myc tag co-expressed in N. benthamiana for 48 hours; IP with anti-GFP beads; blot anti-Myc
[7] = target: Tm-2^2 LRR domain (aa 493-861) (tomato) (UniProt Q71BG9); assay: co-IP; isolated domains with HA or Myc tag co-expressed in N. benthamiana, no MP; IP with anti-Myc beads; blot anti-HA
[8] = target: Tm-2^2 CC-DP-Rop (tomato) (UniProt Q71BG9); assay: co-IP; Myc-Rop and YFP-Rop tagged (plasma-membrane tethered) copies co-expressed in pair in N. benthamiana; IP with anti-GFP beads; blot anti-Myc
[9] = target: Tm-2^2 CC-NB-ARC-Rop (tomato) (UniProt Q71BG9); assay: as above
[10] = target: Tm-2^2 CC-NB-ARC (D481V)-Rop (tomato) (UniProt Q71BG9); assay: as above
[11] = target: Tm-2^2 CC-NB-ARC (D481V, L233A)-Rop (tomato) (UniProt Q71BG9); assay: as above
[12] = target: Tm-2^2 CC-NB-ARC (D481V, L242A)-Rop (tomato) (UniProt Q71BG9); assay: as above

B1: Tm-2^2 (receptor, UniProt Q71BG9 1-861)
chain: MAEILLTSVINKSVEIAGNLLIQEGKRLYWLKEDIDWLQREMRHIRSYVDNAKAKEAGGDSRVKNLLKDIQELAGDVEDLLDDFLPKIQQSNKFNYCLKRSSFADEFAMEIEKIKRRVVDIDRIRKTYNIIDTDNNNDDCVLLDRRRLFLHADETEIIGLDDDFNMLQAKLLNQDLHYGVVSIVGMPGLGKTTLAKKLYRLIRDQFECSGLVYVSQQPRASEILLDIAKQIGLTEQKMKENLEDNLRSLLKIKRYVILLDDIWDVEIWDDLKLVLPECDSKVGSRMIITSRNSNVGRYIGGESSLHALQPLESEKSFELFTKKIFNFDDNNSWANASPDLVNIGRNIVGRCGGIPLAIVVTAGMLRARERTEHAWNRVLESMGHKVQDGCAKVLALSYNDLPIASRPCFLYFGLYPEDHEIRAFDLINMWIAEKFIVVNSGNRREAEDLAEDVLNDLVSRNLIQLAKRTYNGRISSCRIHDLLHSLCVDLAKESNFFHTAHDAFGDPGNVARLRRITFYSDNVMIEFFRSNPKLEKLRVLFCFAKDPSIFSHMAYFDFKLLHTLVVVMSQSFQAYVTIPSKFGNMTCLRYLRLEGNICGKLPNSIVKLTRLETIDIDRRSLIQPPSGVWESKHLRHLCYRDYGQACNSCFSISSFYPNIYSLHPNNLQTLMWIPDKFFEPRLLHRLINLRKLGILGVSNSTVKMLSIFSPVLKALEVLKLSFSSDPSEQIKLSSYPHIAKLHLNVNRTMALNSQSFPPNLIKLTLAYFSVDRYILAVLKTFPKLRKLKMFICKYNEEKMDLSGEANGYSFPQLEVLHIHSPNGLSEVTCTDDVSMPKLKKLLLTGFHCRISLSERLKKLSK
Tm-2^2 (tomato) [1]
  binding: binds weakly
Tm-2^2 (tomato) [2]
  binding: binds

B2: Tm-2^2 NB-ARC domain (aa 141-492) (domain or fragment, UniProt Q71BG9 141-492)
chain: VLLDRRRLFLHADETEIIGLDDDFNMLQAKLLNQDLHYGVVSIVGMPGLGKTTLAKKLYRLIRDQFECSGLVYVSQQPRASEILLDIAKQIGLTEQKMKENLEDNLRSLLKIKRYVILLDDIWDVEIWDDLKLVLPECDSKVGSRMIITSRNSNVGRYIGGESSLHALQPLESEKSFELFTKKIFNFDDNNSWANASPDLVNIGRNIVGRCGGIPLAIVVTAGMLRARERTEHAWNRVLESMGHKVQDGCAKVLALSYNDLPIASRPCFLYFGLYPEDHEIRAFDLINMWIAEKFIVVNSGNRREAEDLAEDVLNDLVSRNLIQLAKRTYNGRISSCRIHDLLHSLCVDLAK
[3]
  binding: binds
[4]
  binding: binds
[5]
  binding: binds

B3: Tm-2^2 LRR domain (aa 493-861) (domain or fragment, UniProt Q71BG9 493-861)
chain: ESNFFHTAHDAFGDPGNVARLRRITFYSDNVMIEFFRSNPKLEKLRVLFCFAKDPSIFSHMAYFDFKLLHTLVVVMSQSFQAYVTIPSKFGNMTCLRYLRLEGNICGKLPNSIVKLTRLETIDIDRRSLIQPPSGVWESKHLRHLCYRDYGQACNSCFSISSFYPNIYSLHPNNLQTLMWIPDKFFEPRLLHRLINLRKLGILGVSNSTVKMLSIFSPVLKALEVLKLSFSSDPSEQIKLSSYPHIAKLHLNVNRTMALNSQSFPPNLIKLTLAYFSVDRYILAVLKTFPKLRKLKMFICKYNEEKMDLSGEANGYSFPQLEVLHIHSPNGLSEVTCTDDVSMPKLKKLLLTGFHCRISLSERLKKLSK
[6]
  binding: binds
[3]
  binding: binds
[4]
  binding: binds
[7]
  binding: binds

B4: Tm-2^2 CC-DP-Rop (domain or fragment, UniProt Q71BG9 1-141)
chain: MAEILLTSVINKSVEIAGNLLIQEGKRLYWLKEDIDWLQREMRHIRSYVDNAKAKEAGGDSRVKNLLKDIQELAGDVEDLLDDFLPKIQQSNKFNYCLKRSSFADEFAMEIEKIKRRVVDIDRIRKTYNIIDTDNNNDDCVEFLIVKS
[8]
  binding: binds

B5: Tm-2^2 CC-NB-ARC-Rop (domain or fragment, UniProt Q71BG9 1-492)
chain: MAEILLTSVINKSVEIAGNLLIQEGKRLYWLKEDIDWLQREMRHIRSYVDNAKAKEAGGDSRVKNLLKDIQELAGDVEDLLDDFLPKIQQSNKFNYCLKRSSFADEFAMEIEKIKRRVVDIDRIRKTYNIIDTDNNNDDCVLLDRRRLFLHADETEIIGLDDDFNMLQAKLLNQDLHYGVVSIVGMPGLGKTTLAKKLYRLIRDQFECSGLVYVSQQPRASEILLDIAKQIGLTEQKMKENLEDNLRSLLKIKRYVILLDDIWDVEIWDDLKLVLPECDSKVGSRMIITSRNSNVGRYIGGESSLHALQPLESEKSFELFTKKIFNFDDNNSWANASPDLVNIGRNIVGRCGGIPLAIVVTAGMLRARERTEHAWNRVLESMGHKVQDGCAKVLALSYNDLPIASRPCFLYFGLYPEDHEIRAFDLINMWIAEKFIVVNSGNRREAEDLAEDVLNDLVSRNLIQLAKRTYNGRISSCRIHDLLHSLCVDLAK
[9]
  binding: binds

B6: Tm-2^2 CC-NB-ARC (D481V)-Rop (domain or fragment, UniProt Q71BG9 1-492)
chain: MAEILLTSVINKSVEIAGNLLIQEGKRLYWLKEDIDWLQREMRHIRSYVDNAKAKEAGGDSRVKNLLKDIQELAGDVEDLLDDFLPKIQQSNKFNYCLKRSSFADEFAMEIEKIKRRVVDIDRIRKTYNIIDTDNNNDDCVLLDRRRLFLHADETEIIGLDDDFNMLQAKLLNQDLHYGVVSIVGMPGLGKTTLAKKLYRLIRDQFECSGLVYVSQQPRASEILLDIAKQIGLTEQKMKENLEDNLRSLLKIKRYVILLDDIWDVEIWDDLKLVLPECDSKVGSRMIITSRNSNVGRYIGGESSLHALQPLESEKSFELFTKKIFNFDDNNSWANASPDLVNIGRNIVGRCGGIPLAIVVTAGMLRARERTEHAWNRVLESMGHKVQDGCAKVLALSYNDLPIASRPCFLYFGLYPEDHEIRAFDLINMWIAEKFIVVNSGNRREAEDLAEDVLNDLVSRNLIQLAKRTYNGRISSCRIHVLLHSLCVDLAK
[10]
  binding: binds

B7: Tm-2^2 CC-NB-ARC (D481V, L233A)-Rop (domain or fragment, UniProt Q71BG9 1-492)
chain: MAEILLTSVINKSVEIAGNLLIQEGKRLYWLKEDIDWLQREMRHIRSYVDNAKAKEAGGDSRVKNLLKDIQELAGDVEDLLDDFLPKIQQSNKFNYCLKRSSFADEFAMEIEKIKRRVVDIDRIRKTYNIIDTDNNNDDCVLLDRRRLFLHADETEIIGLDDDFNMLQAKLLNQDLHYGVVSIVGMPGLGKTTLAKKLYRLIRDQFECSGLVYVSQQPRASEILLDIAKQIGATEQKMKENLEDNLRSLLKIKRYVILLDDIWDVEIWDDLKLVLPECDSKVGSRMIITSRNSNVGRYIGGESSLHALQPLESEKSFELFTKKIFNFDDNNSWANASPDLVNIGRNIVGRCGGIPLAIVVTAGMLRARERTEHAWNRVLESMGHKVQDGCAKVLALSYNDLPIASRPCFLYFGLYPEDHEIRAFDLINMWIAEKFIVVNSGNRREAEDLAEDVLNDLVSRNLIQLAKRTYNGRISSCRIHVLLHSLCVDLAK
[11]
  binding: binds

B8: Tm-2^2 CC-NB-ARC (D481V, L242A)-Rop (domain or fragment, UniProt Q71BG9 1-492)
chain: MAEILLTSVINKSVEIAGNLLIQEGKRLYWLKEDIDWLQREMRHIRSYVDNAKAKEAGGDSRVKNLLKDIQELAGDVEDLLDDFLPKIQQSNKFNYCLKRSSFADEFAMEIEKIKRRVVDIDRIRKTYNIIDTDNNNDDCVLLDRRRLFLHADETEIIGLDDDFNMLQAKLLNQDLHYGVVSIVGMPGLGKTTLAKKLYRLIRDQFECSGLVYVSQQPRASEILLDIAKQIGLTEQKMKENAEDNLRSLLKIKRYVILLDDIWDVEIWDDLKLVLPECDSKVGSRMIITSRNSNVGRYIGGESSLHALQPLESEKSFELFTKKIFNFDDNNSWANASPDLVNIGRNIVGRCGGIPLAIVVTAGMLRARERTEHAWNRVLESMGHKVQDGCAKVLALSYNDLPIASRPCFLYFGLYPEDHEIRAFDLINMWIAEKFIVVNSGNRREAEDLAEDVLNDLVSRNLIQLAKRTYNGRISSCRIHVLLHSLCVDLAK
[12]
  binding: binds
